Results are given in words; binding and its absence hold for the method and conditions named. In cells and extracts the contact can be indirect. Some binding calls cover weakened binding; strength is not graded here. For some assays here: Where a sequence is shown, tags or fusion partners need not be part of it. Each block holds one molecule with its values, some of them ahead of it.
Assays:
[1] = target: T1, ETS1 full length (FL) construct purified with streptavidin beads (human (by the printed RefSeq entry)) (UniProt P14921); experiment: pull-down; 293 cells co-transfected with HA-GSK3β or control vector and full length or truncated ETS1 constructs; purification with streptavidin beads; co-precipitated GSK3β detected with an anti-HA antibody
T1 sequence: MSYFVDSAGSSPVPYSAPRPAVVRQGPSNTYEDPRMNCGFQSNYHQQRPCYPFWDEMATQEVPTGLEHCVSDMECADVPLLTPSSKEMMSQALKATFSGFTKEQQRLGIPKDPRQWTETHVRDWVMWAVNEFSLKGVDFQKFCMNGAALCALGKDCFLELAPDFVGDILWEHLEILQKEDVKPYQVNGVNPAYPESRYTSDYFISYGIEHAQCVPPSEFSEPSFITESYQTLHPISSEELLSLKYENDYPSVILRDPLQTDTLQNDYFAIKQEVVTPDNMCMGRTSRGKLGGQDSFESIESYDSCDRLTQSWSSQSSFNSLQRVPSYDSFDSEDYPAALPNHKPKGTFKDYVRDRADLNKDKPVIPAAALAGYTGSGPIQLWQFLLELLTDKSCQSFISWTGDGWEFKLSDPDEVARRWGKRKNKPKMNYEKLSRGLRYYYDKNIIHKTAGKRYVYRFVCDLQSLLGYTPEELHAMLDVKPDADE

The chains behind the UniProt entries cited, without tags or fusion partners. Where a name states a change or a piece, a line headed by the entry shows the natural chain unless it says otherwise. A line that says so, or that is headed by a name, gives the form on record, which may keep a tag or linker.
UniProt Q09472: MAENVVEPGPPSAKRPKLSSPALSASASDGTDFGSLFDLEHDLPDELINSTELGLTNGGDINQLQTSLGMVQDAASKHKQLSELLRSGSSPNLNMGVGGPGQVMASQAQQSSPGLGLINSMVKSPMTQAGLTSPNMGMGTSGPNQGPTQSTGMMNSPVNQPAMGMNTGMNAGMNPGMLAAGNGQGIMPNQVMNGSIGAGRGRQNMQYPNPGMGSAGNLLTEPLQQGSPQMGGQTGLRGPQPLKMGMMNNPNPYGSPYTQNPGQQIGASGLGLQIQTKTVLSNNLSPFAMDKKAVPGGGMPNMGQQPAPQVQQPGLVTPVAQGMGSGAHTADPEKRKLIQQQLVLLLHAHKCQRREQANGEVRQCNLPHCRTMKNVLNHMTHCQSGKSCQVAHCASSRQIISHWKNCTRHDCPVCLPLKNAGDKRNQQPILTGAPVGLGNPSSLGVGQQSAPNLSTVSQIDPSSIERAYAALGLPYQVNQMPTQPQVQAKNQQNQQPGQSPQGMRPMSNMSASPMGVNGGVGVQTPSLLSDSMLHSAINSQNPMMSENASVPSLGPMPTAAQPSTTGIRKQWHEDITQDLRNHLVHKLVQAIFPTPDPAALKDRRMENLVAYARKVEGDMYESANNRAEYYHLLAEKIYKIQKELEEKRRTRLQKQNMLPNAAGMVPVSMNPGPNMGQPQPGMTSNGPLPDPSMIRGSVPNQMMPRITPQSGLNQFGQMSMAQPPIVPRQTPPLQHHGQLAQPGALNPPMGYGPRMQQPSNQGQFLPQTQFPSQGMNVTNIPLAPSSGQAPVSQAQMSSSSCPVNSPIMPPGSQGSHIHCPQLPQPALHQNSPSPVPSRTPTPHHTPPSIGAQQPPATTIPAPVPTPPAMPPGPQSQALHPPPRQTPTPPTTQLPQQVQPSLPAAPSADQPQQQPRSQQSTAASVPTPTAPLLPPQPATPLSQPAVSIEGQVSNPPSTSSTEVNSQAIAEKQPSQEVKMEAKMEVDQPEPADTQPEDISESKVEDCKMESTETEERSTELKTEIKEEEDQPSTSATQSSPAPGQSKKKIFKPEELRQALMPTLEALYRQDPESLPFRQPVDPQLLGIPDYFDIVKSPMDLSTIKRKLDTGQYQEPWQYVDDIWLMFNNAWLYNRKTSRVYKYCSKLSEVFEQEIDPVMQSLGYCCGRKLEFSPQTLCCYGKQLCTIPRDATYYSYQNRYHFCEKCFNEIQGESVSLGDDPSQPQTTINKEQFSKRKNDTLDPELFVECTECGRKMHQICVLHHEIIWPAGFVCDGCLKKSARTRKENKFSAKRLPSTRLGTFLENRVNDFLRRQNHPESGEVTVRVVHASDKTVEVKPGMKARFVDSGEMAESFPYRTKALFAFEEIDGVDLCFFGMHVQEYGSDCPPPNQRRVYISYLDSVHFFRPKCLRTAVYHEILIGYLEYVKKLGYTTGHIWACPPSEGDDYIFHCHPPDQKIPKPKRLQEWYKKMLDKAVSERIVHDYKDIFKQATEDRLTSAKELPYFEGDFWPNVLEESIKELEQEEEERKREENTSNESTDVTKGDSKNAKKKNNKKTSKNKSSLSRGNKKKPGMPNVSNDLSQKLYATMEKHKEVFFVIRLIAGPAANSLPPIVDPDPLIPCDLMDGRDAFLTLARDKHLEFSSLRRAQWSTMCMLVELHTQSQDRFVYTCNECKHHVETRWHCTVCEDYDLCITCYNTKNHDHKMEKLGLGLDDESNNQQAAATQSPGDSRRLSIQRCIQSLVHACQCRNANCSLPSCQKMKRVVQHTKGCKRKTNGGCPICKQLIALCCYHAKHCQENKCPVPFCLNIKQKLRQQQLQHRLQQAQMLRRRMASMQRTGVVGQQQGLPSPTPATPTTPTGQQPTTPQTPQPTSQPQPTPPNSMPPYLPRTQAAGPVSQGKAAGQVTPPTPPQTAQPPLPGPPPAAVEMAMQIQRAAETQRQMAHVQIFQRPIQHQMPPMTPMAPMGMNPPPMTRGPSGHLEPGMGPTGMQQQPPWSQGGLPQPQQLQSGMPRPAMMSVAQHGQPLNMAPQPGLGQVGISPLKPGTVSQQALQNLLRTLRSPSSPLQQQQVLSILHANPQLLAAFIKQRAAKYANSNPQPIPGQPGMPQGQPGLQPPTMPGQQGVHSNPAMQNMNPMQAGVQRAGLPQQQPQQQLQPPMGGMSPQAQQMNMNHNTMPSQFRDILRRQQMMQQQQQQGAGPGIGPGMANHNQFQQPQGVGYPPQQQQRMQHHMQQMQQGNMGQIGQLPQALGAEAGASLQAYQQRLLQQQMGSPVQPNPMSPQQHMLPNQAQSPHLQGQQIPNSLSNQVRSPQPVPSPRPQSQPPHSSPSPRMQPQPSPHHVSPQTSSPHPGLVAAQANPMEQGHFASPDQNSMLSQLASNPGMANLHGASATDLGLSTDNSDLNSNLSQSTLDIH
UniProt P49841: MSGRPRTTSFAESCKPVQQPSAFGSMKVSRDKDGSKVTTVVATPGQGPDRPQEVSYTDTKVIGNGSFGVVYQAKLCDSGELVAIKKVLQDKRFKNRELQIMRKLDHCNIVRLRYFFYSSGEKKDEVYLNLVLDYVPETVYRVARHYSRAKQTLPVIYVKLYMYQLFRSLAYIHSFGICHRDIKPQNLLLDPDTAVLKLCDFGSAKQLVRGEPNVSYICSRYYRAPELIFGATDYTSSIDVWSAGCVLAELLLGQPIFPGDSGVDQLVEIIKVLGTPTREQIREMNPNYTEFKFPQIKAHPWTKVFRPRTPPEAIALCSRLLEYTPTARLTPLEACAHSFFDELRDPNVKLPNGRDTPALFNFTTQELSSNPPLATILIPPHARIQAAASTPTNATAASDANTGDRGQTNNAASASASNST
GSK3β full length (CBP tag) (human (by the printed RefSeq entry)) (P49841-2, form named): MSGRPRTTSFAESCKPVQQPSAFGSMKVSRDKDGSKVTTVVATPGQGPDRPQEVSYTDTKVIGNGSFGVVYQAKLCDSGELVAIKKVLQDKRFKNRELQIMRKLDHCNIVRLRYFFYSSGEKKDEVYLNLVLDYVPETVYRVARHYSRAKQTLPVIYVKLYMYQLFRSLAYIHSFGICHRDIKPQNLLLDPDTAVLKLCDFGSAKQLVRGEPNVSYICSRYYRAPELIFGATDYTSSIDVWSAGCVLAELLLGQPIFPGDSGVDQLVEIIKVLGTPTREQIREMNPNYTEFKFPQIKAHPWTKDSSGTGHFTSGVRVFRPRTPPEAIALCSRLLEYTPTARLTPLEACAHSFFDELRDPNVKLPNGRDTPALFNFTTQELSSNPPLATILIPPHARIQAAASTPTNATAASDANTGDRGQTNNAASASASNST
56-353/GSK3β (kinase domain of GSK3β, CBP tag) (human (by the printed RefSeq entry)) (P49841-2, form named): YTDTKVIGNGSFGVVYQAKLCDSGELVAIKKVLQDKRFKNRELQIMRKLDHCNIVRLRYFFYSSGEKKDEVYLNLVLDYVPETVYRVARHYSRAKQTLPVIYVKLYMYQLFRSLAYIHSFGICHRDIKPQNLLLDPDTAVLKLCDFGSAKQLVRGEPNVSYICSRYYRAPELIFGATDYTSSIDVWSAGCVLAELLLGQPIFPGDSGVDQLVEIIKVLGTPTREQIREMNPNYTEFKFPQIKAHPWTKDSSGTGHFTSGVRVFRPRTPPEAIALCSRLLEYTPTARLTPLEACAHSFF

[2] = target: T2, ETS1 (endogenous) (human (endogenous in MDAH2774)) (UniProt P14921); experiment: co-IP; endogenous proteins in MDAH2774 lysate; precipitated with an anti-ETS1 or an anti-GSK3β antibody, control IgG; western blot; lysis buffer 20 mM Tris-Cl pH 7.4, 25 mM NaCl, 0.1% NP40; overnight at 4 °C
T2 sequence: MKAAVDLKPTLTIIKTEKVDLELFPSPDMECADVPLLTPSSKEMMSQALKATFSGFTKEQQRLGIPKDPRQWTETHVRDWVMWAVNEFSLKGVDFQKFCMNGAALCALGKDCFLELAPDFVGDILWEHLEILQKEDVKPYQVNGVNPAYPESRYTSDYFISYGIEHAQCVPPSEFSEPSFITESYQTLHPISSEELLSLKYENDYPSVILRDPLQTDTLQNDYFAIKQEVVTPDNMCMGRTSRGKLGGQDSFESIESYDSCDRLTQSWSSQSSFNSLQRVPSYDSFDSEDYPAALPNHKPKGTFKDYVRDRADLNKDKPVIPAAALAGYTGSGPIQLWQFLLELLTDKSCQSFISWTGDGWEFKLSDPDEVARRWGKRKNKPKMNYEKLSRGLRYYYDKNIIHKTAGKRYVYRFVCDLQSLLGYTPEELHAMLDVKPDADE

[3] = target: p300 (human (endogenous in 293)) (UniProt Q09472); experiment: co-IP; 293 cells overexpressing Halo-ETS1 or Halo-ETS1-3A; precipitated with an anti-p300 antibody; detected with an anti-Halo tag antibody
[4] = target: 56-353/GSK3β (kinase domain of GSK3β, CBP tag) (human (by the printed RefSeq entry)) (UniProt P49841); experiment: co-IP; 293 cells transfected with Halo-ETS1 and control vector, full length or truncated GSK3β constructs (CBP tag); ETS1 in the complex detected with an anti-Halo tag antibody; resin not told
[5] = target: GSK3β full length (CBP tag) (human (by the printed RefSeq entry)) (UniProt P49841); experiment: as above

binding [1]: binds
Molecule: HA-GSK3β (full-length GSK3β) (from UniProt P49841-2 1-433) (enzyme)

binding [2]: binds
Molecule: Glycogen synthase kinase-3β (endogenous) (from UniProt P49841 1-420) (enzyme)

binding [3]: binds
binding [4]: binds
binding [5]: binds
B1: Halo-ETS1 (full-length ETS1, Halo tag) (protein, UniProt P14921-3 1-485)
chain: T1 sequence
